The target in the assay is T1, Cup (D. melanogaster (endogenous in embryos)) (UniProt Q9VMA3).
T1 sequence: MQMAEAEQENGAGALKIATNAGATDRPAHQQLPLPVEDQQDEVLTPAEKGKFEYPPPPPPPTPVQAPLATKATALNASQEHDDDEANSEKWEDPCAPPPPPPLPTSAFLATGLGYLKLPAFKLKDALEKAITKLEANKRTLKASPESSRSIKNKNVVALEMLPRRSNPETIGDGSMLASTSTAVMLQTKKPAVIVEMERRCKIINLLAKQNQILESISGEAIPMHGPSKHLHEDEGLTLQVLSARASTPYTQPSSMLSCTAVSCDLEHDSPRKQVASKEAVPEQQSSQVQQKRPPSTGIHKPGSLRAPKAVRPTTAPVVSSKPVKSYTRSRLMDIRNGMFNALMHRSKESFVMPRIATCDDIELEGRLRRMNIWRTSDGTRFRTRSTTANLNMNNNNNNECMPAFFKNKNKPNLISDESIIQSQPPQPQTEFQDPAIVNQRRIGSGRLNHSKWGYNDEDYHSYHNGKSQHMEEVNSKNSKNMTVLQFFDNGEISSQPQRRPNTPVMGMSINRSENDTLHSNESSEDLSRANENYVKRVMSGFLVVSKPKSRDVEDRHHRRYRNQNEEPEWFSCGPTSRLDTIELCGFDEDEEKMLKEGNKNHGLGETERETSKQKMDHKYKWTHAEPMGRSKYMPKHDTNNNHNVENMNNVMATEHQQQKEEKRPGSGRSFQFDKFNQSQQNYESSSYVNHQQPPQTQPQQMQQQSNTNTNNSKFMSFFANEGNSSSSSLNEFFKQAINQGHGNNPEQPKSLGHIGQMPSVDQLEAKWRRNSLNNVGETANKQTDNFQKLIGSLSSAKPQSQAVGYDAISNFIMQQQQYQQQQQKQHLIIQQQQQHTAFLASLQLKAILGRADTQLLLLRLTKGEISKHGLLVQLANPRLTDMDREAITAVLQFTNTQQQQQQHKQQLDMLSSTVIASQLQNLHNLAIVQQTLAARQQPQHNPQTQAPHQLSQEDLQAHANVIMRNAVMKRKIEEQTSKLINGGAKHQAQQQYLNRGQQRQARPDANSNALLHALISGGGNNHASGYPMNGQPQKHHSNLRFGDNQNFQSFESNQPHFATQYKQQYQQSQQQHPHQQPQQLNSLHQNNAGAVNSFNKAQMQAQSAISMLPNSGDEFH
Description: co-IP; 1-2 hr embryo lysates diluted to 1.0 mg/ml in lysis buffer B (150 mM KCl, 20 mM HEPES-KOH pH 7.4, 1 mM MgCl2, 1 mM DTT), α-GFP, α-Cup or IgG, protein G beads, 4°C; western blot with α-RanBPM; embryos wild-type, png^50, or with mCherry, RanBPM, Muskelin, Souji or Kdo knocked down.

Results are given in words; binding and its absence hold for the method and conditions named. Binding seen in cells or lysates may run through a third protein. Some results given as binding are weak or reduced against the parent protein; the word gives no strength.

B1: RanBPM (protein, UniProt Q4Z8K6 1-962)
chain: MENVEEAPPLSSESNSNSNNSSASSSSHQLSQSGAMGAEIAPSTSRSHSHSPTPSPPVPASSHDQPHPDHPSPPLNASETEARENSPHDHSPTPTFHQTAPPPTTSSTAPQRDEREQQQQQEAPPLQQDQQENSPAQDQELHPLLDQQNQEYPAVHQDQQAEQNQELHHIEGLIRHRESQNPEEHPPQASLENRETLGREDTNQEPDEPQVRDPEIEPEAEPPPPLLLEDLDEQDSGSQDLNEQQPPLIIDANAIAETIDANAVERIDDYEDDDEEVDEEEEVVEDRVDRAGEVASVSGAQRLHSVAVLPRYSSASRAPRSSNNNNNNISNHNNNNNNSNSNSLSRRTRHFYSNNGSHFSNDMFPSHNPRSSTQTSSPRVGGRRHHSTPAASSNSPQHQGVDPLRLLYPNVNESETPLPRCWSPHDKCLSIGLSQNNLRVTYKGVGKQHSDAASVRTAYPIPSSCGLYYFEVRIISKGRNGYMGIGLTAQQFRMNRLPGWDKQSYGYHGDDGNSFSSSGNGQTYGPTFTTGDVIGCCVNFVNNTCFYTKNGVDLGIAFRDLPTKLYPTVGLQTPGEEVDANFGQEPFKFDKIVDMMKEMRSNVLRKIDRYPHLLETPENLMNRLVSTYLVHNAFSKTAEAFNGYTNQTFNEDLASIKTRQKIIKLILTGKMSQAIEHTLRSFPGLLENNKNLWFALKCRQFIEMINGADIENVNNKVTATTQTMPTNQTSVIQSTKTFKHSKSGSGNGNVNINQTQQQNNTAIPAVIKPQGGDRPDIKNMLVDDNSNKCVEHDSNSMDVEMEPCQSHSNGGDSSSNGNASAVRNSLDAIDEEMDVDVSPSSRNCGRVIEKILEFGKELSSMGQQLEKENLMTEEERQMLEDAFSLIAYSNPWSSPLGWLLCPSRRESVSTTLNSAILESLNFERRPPLEYLVAHASELIKVIGQHSLGEDAFITIDDVFPQN
For the molecule B1, the binding entry was “binds”.
